Laboratory results reported in patent US20140227179A1.
These are yes or no findings as the source states them, for the method shown. Some results given as binding are weak or reduced against the parent protein; the word gives no strength.

The chains behind the UniProt entries cited, without tags or fusion partners. Residues count along the entry.
UniProt P98088, residues 28-5654: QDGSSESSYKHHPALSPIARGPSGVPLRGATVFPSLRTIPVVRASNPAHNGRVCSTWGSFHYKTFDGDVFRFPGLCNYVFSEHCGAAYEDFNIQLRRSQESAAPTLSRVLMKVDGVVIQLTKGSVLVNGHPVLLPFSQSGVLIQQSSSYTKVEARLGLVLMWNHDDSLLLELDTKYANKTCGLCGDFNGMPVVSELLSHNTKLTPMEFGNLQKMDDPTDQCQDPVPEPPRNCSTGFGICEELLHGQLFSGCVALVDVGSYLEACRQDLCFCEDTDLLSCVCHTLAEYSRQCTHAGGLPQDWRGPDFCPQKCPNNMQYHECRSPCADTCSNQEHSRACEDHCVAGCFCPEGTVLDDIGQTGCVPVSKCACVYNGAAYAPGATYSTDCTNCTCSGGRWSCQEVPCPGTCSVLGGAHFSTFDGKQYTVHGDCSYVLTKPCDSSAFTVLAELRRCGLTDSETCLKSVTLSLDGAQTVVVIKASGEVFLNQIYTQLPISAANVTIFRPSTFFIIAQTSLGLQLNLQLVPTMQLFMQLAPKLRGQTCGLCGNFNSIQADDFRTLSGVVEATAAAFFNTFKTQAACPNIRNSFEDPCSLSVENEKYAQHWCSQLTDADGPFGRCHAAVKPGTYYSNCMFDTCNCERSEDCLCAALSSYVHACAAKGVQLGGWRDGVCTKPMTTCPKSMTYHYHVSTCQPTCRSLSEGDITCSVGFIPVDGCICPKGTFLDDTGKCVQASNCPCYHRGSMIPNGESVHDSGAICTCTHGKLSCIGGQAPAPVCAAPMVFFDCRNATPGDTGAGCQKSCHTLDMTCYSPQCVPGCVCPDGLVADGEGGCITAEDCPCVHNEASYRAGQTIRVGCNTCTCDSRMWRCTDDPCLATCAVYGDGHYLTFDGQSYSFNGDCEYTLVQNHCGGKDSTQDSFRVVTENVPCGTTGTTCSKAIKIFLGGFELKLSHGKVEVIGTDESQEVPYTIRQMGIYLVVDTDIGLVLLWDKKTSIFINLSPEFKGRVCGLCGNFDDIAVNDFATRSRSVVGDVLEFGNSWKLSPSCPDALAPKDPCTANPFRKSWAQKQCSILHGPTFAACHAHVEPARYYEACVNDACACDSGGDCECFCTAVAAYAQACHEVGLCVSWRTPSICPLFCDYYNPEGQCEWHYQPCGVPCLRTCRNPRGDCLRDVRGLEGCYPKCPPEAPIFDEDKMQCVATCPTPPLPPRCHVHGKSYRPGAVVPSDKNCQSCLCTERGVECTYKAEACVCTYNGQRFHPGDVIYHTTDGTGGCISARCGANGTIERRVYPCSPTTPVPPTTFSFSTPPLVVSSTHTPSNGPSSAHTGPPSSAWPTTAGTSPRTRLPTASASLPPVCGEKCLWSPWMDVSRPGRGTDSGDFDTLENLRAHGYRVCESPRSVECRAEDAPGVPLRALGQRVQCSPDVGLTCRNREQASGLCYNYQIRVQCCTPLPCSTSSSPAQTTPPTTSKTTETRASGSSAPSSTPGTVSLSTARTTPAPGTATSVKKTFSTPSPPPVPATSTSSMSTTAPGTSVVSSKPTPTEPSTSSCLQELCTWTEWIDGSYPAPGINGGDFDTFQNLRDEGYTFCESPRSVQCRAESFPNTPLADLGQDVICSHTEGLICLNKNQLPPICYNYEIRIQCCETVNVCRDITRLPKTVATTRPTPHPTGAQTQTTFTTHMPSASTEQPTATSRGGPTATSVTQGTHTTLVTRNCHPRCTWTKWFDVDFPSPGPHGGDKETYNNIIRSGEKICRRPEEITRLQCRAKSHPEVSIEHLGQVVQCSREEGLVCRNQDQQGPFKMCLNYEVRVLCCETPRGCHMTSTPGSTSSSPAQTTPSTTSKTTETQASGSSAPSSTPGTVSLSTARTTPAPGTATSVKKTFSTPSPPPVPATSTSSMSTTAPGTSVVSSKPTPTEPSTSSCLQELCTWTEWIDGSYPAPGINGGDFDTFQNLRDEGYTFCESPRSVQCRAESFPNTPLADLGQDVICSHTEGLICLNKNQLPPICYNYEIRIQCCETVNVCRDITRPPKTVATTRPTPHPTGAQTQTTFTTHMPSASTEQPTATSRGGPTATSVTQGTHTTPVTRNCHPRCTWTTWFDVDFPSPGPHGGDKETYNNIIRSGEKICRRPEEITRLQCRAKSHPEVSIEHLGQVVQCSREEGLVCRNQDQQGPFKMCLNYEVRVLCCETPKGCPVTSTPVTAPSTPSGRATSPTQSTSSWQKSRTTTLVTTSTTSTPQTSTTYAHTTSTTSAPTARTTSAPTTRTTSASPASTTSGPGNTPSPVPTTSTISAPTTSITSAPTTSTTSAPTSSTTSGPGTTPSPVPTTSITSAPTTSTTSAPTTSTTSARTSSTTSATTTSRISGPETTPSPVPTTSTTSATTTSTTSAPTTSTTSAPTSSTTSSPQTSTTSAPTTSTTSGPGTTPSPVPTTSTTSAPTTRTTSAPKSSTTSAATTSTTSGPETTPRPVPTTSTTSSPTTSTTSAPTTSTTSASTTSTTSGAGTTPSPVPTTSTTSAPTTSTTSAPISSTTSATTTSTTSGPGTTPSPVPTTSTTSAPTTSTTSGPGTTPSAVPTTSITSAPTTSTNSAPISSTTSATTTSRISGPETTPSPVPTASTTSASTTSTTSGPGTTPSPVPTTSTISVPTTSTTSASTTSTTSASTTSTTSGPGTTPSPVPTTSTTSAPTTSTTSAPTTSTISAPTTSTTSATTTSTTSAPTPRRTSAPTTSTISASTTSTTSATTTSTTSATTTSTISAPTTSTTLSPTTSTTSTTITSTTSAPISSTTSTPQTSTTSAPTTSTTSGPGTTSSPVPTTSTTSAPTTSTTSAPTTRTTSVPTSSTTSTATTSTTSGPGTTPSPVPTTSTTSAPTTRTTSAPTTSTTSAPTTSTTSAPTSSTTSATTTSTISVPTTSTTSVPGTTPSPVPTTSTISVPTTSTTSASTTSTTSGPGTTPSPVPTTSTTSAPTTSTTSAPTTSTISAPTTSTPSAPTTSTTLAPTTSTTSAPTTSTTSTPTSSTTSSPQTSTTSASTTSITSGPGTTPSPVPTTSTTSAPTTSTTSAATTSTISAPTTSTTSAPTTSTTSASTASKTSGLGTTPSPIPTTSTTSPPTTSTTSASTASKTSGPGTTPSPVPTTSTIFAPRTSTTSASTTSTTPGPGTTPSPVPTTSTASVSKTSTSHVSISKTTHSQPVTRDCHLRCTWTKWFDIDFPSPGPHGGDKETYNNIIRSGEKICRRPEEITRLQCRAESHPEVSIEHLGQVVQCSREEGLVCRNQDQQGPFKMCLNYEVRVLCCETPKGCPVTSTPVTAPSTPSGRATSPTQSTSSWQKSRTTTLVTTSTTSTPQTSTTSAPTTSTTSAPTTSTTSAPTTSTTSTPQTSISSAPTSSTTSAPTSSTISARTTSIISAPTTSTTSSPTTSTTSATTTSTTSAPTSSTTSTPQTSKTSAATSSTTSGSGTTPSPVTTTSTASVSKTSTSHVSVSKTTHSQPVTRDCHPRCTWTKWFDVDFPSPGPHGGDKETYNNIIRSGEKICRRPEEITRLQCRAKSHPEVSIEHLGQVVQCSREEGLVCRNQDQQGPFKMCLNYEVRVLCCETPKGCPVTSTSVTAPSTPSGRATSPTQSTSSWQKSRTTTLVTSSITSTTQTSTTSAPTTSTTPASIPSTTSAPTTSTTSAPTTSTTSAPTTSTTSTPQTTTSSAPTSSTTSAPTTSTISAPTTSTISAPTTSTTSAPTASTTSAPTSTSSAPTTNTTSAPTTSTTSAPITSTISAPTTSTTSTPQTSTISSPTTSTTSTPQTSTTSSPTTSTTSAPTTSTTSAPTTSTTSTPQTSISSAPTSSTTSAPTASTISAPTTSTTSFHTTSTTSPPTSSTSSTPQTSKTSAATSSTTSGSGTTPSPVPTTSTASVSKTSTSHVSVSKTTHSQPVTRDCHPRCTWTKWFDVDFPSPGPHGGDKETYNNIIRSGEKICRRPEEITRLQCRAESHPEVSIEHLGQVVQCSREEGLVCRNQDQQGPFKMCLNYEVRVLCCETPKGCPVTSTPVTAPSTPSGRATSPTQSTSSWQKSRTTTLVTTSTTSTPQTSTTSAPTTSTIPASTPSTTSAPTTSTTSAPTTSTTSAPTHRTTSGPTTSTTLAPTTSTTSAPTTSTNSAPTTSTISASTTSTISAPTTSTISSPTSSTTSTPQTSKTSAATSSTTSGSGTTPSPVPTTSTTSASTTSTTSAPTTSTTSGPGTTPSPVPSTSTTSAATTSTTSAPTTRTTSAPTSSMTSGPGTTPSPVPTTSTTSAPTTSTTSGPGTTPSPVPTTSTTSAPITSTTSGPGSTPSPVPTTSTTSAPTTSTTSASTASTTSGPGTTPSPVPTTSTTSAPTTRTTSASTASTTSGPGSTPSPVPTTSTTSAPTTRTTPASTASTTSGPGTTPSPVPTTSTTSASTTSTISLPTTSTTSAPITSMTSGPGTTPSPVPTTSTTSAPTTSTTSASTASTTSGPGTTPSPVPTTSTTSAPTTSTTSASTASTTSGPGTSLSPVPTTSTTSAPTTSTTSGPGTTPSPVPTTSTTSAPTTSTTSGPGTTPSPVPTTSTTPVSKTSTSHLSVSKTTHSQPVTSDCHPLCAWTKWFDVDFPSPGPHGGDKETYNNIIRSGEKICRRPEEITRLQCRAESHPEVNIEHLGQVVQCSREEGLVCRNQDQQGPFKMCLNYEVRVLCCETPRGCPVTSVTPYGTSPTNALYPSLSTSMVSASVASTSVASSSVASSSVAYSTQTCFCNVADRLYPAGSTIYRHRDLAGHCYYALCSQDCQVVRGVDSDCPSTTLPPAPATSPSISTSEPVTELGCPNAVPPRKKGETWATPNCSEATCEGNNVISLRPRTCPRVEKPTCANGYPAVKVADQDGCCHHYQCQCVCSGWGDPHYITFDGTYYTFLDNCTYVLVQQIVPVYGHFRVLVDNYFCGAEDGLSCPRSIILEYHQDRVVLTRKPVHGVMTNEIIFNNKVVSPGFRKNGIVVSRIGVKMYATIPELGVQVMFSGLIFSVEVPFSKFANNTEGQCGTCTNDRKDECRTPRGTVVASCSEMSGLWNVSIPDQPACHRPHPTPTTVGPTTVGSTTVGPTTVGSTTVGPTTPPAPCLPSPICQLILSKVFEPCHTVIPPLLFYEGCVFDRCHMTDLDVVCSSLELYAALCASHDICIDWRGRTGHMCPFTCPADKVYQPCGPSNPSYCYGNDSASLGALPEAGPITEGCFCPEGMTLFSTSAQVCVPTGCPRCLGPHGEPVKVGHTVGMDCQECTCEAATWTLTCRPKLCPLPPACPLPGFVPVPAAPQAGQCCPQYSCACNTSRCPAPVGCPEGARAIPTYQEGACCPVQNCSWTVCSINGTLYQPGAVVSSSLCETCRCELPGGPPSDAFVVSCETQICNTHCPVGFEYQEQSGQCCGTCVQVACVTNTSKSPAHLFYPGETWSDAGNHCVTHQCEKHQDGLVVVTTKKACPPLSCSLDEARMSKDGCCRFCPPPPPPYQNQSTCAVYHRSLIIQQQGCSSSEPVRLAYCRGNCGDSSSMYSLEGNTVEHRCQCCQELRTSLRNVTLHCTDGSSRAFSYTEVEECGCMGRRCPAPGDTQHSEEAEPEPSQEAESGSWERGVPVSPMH

Assays:
[1] = biological target: MUC5ac mucin (PAM4 antigen) from CaPan1 human pancreatic carcinoma (human) (UniProt P98088); assay: competition assay of FIG. 5; competitor labelled cPAM4
[2] = biological target: MUC5ac mucin (PAM4 antigen) from CaPan1 human pancreatic carcinoma (human) (UniProt P98088); assay: competitive ELISA on PAM4-antigen (CaPan1 Ag) coated plates; competitor HRP-conjugated cPAM4
[3] = biological target: MUC5ac mucin (PAM4 antigen) from CaPan1 human pancreatic carcinoma (human) (UniProt P98088); assay: sandwich EIA, PAM4 capture
[4] = biological target: MUC5ac mucin (PAM4 antigen) from CaPan1 human pancreatic carcinoma (human) (UniProt P98088); assay: indirect, sandwich and blocking EIA taken together
[5] = biological target: MUC5ac mucin (PAM4 antigen) from CaPan1 human pancreatic carcinoma (human) (UniProt P98088); assay: indirect EIA on CPM1-coated plates, MAb at 10 µg/mL
[6] = biological target: MUC5ac mucin (PAM4 antigen) from CaPan1 human pancreatic carcinoma (human) (UniProt P98088); assay: indirect EIA on CPM1 (FIG. 25), MAbs at 10 µg/mL
[7] = biological target: MUC5ac mucin (PAM4 antigen) from CaPan1 human pancreatic carcinoma (human) (UniProt P98088); assay: inhibition EIA on CPM1-coated plates (FIG. 27A); competitor hPAM4

B1: chimeric PAM4 (cPAM4) (antibody, V domains shown)
VH: QVQLQESGPELVKPGASVKMSCKASGYTFPSYVLHWVKQKPGQGLEWIGYINPYNDGTQYNEKFKGKATLTSDKSSSTAYMELSRLTSEDSAVYYCARGFGGSYGFAYWGQGTLITVSS
VL: DIQLTQSPAIMSASPGEKVTMTCSASSSVSSSYLYWYQQKPGSSPKLWIYSTSNLASGVPARFSGSGSGTSYSLTISSMEAEDAASYFCHQWNRYPYTFGGGTKLEIKR
For B1, the binding [1] was “binds” and the binding [2] was “binds”.

B2: PAM4 antibody (version not stated where used) (antibody, V domains shown)
VH: EVQLQESGPELVKPGASVKMSCKASGYTFPSYVLHWVKQKPGQGLEWIGYINPYNDGTQYNEKFKGKATLTSDKSSSTAYMELSRLTSEDSAVYYCARGFGGSYGFAYWGQGTLITVSA
VL: DIVMTQSPAIMSASPGEKVTMTCSASSSVSSSYLYWYQQKPGSSPKLWIYSTSNLASGVPARFSGSGSGTSYSLTISSMEAEDAASYFCHQWNRYPYTFGGGTKLEIK
In the case of B2, the binding [3] is reported as “binds” and the binding [4] is reported as “binds”.

B3: murine PAM4 (mPAM4) IgG (antibody, V domains shown)
VH: EVQLQESGPELVKPGASVKMSCKASGYTFPSYVLHWVKQKPGQGLEWIGYINPYNDGTQYNEKFKGKATLTSDKSSSTAYMELSRLTSEDSAVYYCARGFGGSYGFAYWGQGTLITVSA
VL: DIVMTQSPAIMSASPGEKVTMTCSASSSVSSSYLYWYQQKPGSSPKLWIYSTSNLASGVPARFSGSGSGTSYSLTISSMEAEDAASYFCHQWNRYPYTFGGGTKLEIK
For B3, the binding [5] was “binds”, the binding [6] was “binds” and the binding [7] was “binds”.
